The list shows a part of the results.
Assays:
Assay in all cases: log2 fold change, soluble protein after heating vs DMSO (PISA); higher = thermal stabilisation; K562 lysate, 10 uM; active = over 0.2 and 3.5 SD of the protein, either way, in both replicates (recomputed)
vemurafenib = compound: CCCS(=O)(=O)Nc1ccc(F)c(C(=O)c2c[nH]c3ncc(-c4ccc(Cl)cc4)cc23)c1F [vemurafenib]
How it was run: (§1)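 Thermal stability, expressed as log-two fold change relative to solvent controls, is given from duplicates. Crude K562 extract in PBS pH 7.4 with 1 mM MgCl2, at 1 mg/mL protein, was treated with 10 μM compound for 30 min and heated in aliquots for 3 min across 48°C-58°C. After pooling, adjustment to 0.5% NP-40 at 4°C and centrifugation at 21,000xg for 90 min, supernatant protein was measured by TMTpro 16plex LC-MS/MS with channel sums equalised.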

Chains of the proteins cited; added tags and fusions are not shown. Lines headed by an entry give the natural chain unless they say otherwise; changes in a name come on top.
UniProt P78536: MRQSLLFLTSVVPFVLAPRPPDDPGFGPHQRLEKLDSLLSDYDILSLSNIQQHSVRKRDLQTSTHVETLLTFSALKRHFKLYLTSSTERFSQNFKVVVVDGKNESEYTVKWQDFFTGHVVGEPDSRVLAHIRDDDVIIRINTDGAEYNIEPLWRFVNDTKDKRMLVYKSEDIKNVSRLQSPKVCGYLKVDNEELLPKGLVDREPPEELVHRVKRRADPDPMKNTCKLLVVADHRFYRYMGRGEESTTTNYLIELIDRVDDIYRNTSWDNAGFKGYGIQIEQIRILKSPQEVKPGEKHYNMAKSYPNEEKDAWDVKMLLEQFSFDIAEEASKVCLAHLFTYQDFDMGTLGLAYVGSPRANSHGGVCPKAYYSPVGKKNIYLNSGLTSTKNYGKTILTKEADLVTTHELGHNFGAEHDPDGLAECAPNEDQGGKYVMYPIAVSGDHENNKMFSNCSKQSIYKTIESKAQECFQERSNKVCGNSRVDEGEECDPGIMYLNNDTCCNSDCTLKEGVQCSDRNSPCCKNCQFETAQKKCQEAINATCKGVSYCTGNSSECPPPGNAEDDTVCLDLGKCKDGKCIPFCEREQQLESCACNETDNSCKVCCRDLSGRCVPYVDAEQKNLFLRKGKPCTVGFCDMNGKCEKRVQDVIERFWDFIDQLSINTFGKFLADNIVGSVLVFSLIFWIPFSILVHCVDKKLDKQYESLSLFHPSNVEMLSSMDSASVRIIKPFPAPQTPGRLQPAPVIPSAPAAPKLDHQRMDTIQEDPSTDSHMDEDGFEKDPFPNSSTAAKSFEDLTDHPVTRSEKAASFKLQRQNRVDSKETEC
UniProt P35611: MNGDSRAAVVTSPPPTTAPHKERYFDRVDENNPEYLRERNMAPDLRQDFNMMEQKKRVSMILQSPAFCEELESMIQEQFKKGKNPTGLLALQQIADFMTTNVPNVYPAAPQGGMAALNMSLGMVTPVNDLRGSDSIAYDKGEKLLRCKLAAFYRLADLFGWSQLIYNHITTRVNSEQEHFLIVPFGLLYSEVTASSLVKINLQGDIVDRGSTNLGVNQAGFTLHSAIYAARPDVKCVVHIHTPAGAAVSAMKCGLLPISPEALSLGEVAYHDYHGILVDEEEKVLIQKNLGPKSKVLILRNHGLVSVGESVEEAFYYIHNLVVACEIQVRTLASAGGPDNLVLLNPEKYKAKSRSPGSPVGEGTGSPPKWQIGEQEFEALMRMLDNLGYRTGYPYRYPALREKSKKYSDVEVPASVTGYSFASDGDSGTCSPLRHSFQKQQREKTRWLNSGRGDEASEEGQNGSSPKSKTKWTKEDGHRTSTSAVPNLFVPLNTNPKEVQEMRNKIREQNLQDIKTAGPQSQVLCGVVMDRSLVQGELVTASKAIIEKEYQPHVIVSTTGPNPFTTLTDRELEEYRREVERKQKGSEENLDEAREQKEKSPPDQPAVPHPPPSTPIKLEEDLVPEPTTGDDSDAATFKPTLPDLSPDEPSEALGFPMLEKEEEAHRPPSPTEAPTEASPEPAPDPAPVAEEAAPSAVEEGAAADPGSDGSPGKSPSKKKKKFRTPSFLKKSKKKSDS
UniProt O95081: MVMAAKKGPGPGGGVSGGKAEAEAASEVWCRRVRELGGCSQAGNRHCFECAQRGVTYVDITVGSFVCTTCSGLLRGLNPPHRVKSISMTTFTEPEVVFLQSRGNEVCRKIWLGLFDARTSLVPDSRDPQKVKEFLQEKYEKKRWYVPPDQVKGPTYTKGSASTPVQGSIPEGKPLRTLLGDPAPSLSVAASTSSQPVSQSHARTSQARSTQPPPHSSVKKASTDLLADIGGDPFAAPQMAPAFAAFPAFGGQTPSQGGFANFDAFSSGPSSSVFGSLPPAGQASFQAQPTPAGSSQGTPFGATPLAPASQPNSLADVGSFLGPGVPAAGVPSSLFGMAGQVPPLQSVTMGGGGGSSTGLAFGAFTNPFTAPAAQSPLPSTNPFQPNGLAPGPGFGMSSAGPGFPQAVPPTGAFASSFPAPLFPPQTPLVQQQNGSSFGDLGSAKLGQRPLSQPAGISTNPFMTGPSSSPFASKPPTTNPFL
UniProt Q96M93: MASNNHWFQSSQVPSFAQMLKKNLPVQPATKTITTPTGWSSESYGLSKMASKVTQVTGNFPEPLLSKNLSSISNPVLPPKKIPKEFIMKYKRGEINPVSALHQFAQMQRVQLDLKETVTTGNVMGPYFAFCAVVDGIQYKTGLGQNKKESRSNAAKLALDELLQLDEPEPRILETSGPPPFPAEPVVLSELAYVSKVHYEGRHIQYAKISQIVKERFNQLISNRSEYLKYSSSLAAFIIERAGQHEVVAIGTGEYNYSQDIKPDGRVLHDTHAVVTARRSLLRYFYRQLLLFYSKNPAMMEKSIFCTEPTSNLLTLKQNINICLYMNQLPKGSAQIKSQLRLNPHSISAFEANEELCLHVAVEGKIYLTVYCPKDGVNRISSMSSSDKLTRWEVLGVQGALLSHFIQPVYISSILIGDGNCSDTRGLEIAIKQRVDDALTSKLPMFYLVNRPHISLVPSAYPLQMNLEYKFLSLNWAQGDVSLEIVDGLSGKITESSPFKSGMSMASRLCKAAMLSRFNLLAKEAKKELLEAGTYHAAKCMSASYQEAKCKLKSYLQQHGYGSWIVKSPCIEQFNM
UniProt Q04828: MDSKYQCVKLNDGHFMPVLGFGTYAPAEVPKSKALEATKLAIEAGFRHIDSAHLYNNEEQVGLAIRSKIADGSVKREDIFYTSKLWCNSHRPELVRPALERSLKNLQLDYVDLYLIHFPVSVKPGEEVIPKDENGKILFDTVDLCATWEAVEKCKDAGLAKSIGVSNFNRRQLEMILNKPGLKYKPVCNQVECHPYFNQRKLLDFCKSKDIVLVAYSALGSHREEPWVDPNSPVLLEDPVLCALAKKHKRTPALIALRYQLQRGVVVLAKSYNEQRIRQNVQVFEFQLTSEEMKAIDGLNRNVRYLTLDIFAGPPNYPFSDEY
UniProt Q86TW2: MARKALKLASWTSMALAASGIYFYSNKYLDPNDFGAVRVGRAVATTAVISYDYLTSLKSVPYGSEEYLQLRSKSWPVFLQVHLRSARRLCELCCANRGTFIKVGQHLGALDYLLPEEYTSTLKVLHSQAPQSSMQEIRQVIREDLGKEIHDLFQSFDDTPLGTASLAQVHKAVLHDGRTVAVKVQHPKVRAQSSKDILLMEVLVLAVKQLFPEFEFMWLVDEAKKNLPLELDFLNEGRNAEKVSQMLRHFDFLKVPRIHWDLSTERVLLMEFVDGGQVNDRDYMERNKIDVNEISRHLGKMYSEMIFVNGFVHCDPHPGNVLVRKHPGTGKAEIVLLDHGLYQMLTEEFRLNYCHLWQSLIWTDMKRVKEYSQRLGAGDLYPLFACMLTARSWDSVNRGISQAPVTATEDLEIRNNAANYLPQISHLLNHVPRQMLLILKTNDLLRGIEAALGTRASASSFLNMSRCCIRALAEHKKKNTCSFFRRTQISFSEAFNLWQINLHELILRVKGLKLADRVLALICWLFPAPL
UniProt Q8N302: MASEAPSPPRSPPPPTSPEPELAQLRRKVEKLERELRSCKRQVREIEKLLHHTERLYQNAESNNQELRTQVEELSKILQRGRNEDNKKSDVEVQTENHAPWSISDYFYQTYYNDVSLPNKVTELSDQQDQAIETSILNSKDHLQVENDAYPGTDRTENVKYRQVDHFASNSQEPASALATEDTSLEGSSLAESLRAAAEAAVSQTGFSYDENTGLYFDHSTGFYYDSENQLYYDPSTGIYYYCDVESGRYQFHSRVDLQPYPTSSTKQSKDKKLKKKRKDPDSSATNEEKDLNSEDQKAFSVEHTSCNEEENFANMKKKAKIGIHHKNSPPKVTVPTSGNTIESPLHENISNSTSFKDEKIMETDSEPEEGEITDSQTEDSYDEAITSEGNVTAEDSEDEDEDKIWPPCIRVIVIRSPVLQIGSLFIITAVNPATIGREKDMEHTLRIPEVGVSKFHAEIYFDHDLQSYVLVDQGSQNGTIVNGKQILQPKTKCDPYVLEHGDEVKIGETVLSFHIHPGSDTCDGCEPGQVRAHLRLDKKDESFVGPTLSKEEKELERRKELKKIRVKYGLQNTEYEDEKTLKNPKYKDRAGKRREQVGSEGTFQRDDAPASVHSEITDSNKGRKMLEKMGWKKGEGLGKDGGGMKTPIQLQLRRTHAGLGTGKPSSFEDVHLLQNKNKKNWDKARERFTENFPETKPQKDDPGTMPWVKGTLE
UniProt Q9BQI0: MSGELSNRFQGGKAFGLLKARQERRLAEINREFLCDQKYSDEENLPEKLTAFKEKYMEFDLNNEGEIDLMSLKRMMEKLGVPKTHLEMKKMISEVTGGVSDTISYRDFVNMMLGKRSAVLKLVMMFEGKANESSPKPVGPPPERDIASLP
UniProt Q9Y6K8: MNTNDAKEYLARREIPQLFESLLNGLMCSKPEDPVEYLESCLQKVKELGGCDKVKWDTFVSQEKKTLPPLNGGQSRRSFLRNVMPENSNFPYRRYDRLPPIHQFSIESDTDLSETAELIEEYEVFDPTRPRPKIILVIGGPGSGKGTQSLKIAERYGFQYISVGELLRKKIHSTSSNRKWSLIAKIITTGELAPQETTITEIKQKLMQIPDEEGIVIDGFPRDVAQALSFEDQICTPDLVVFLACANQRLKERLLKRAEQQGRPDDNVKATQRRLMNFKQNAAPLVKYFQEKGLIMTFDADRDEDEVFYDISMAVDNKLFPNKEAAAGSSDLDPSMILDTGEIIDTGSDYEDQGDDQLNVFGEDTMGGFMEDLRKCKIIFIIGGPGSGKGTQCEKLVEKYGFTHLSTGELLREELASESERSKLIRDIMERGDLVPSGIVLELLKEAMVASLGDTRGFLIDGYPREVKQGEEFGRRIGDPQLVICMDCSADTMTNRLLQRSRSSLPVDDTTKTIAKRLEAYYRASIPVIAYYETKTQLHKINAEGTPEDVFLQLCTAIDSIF
UniProt Q63HM1: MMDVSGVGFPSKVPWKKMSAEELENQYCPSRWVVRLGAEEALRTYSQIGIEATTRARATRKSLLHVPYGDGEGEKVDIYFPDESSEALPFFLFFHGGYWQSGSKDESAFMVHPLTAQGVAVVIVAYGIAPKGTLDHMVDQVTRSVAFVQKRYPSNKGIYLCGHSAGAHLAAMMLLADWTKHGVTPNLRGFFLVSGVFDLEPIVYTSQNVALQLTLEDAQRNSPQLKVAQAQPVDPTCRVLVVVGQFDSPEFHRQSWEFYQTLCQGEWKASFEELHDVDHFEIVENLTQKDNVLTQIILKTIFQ
UniProt Q9ULC5: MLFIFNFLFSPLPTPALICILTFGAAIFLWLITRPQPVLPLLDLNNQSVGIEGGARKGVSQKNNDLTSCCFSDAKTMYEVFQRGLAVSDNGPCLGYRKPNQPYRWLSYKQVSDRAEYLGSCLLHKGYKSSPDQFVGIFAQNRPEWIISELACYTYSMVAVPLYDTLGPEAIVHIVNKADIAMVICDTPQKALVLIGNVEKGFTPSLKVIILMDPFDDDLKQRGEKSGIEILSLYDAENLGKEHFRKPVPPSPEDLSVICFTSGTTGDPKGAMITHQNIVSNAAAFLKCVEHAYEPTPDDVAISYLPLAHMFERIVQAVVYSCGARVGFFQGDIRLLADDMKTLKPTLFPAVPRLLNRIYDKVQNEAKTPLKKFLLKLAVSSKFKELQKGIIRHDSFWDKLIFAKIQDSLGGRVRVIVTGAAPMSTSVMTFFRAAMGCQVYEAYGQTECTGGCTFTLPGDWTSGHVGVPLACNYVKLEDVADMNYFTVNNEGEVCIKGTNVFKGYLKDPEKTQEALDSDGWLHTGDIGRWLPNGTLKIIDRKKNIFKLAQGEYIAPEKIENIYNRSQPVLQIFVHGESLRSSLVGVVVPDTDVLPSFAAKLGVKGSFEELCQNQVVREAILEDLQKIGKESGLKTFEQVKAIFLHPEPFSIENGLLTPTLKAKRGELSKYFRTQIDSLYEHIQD
UniProt Q9H981, whole entry, looked up: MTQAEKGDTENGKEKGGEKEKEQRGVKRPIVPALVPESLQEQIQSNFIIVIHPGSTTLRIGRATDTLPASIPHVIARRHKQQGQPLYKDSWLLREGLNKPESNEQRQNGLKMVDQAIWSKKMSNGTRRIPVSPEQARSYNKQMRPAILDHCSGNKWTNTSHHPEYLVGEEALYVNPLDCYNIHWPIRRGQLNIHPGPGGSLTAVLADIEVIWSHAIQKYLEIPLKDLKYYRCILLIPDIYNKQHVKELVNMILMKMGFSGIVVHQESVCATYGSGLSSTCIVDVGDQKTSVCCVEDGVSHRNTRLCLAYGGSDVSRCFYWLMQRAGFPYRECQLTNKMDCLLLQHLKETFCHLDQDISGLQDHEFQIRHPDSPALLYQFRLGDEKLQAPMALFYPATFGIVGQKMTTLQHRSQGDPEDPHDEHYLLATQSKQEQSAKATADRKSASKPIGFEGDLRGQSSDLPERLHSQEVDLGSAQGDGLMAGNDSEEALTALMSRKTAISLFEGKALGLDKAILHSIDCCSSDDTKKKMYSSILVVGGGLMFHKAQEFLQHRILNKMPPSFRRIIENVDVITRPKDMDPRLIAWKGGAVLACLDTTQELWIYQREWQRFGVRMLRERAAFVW

barasertib = compound: CCN(CCCOc1ccc2c(Nc3cc(CC(=O)Nc4cccc(F)c4)[nH]n3)ncnc2c1)CCOP(=O)(O)O [barasertib]
How it was run: as §1

[1] = compound: CC[C@@H]1C(=O)N(C)c2cnc(Nc3ccc(C(=O)NC4CCN(C)CC4)cc3OC)nc2N1C1CCCC1
How it was run: as §1

[2] = compound: CCn1c(C(=O)N(C2CC2)C2CC2)cc2c3c(ncn3C)c(Nc3cc(C)n(C)n3)nc21
How it was run: as §1

[3] = compound: CCn1cc(-c2ccnc3[nH]c(-c4cccc(CN(C)C)c4)cc23)c(-c2ccc(NC(=O)N(C)C)cc2)n1
How it was run: as §1

[4] = compound: CN1CCC(CNc2ccc3ncc(-c4cccc(OC(F)(F)F)c4)n3n2)CC1
How it was run: as §1

saracatinib = compound: CN1CCN(CCOc2cc(OC3CCOCC3)c3c(Nc4c(Cl)ccc5c4OCO5)ncnc3c2)CC1 [saracatinib]
How it was run: as §1

sotrastaurin = compound: CN1CCN(c2nc(C3=C(c4c[nH]c5ccccc45)C(=O)NC3=O)c3ccccc3n2)CC1 [sotrastaurin]
How it was run: as §1

alvocidib = compound: CN1CC[C@H](c2c(O)cc(O)c3c(=O)cc(-c4ccccc4Cl)oc23)[C@H](O)C1 [alvocidib]
How it was run: as §1

Tubastatin A = compound: CN1CCc2c(c3ccccc3n2Cc2ccc(C(=O)NO)cc2)C1 [Tubastatin A]
How it was run: as §1

[5] = compound: CNC(=O)C1=CC=CC=C1NC2=NC(=NC=C2Cl)NC3=C(C=C(C=C3)N4CCOCC4)OC
How it was run: as §1

defactinib = compound: CNC(=O)c1ccc(Nc2ncc(C(F)(F)F)c(NCc3nccnc3N(C)S(C)(=O)=O)n2)cc1 [defactinib]
How it was run: as §1

[6] = compound: CNc1nc(-c2ccc3c(N)n[nH]c3c2)cc(N2C[C@@H](C(=O)NC3CCCCC3)CC[C@H]2C)n1
How it was run: as §1

encorafenib = compound: COC(=O)N[C@@H](C)CNc1nccc(-c2cn(C(C)C)nc2-c2cc(Cl)cc(NS(C)(=O)=O)c2F)n1 [encorafenib]
How it was run: as §1

[7] = compound: COC(=O)[C@H](CCSC)NC(=O)C1=C(C=C(C=C1)NC[C@H](CS)N)C2=CC=CC=C2
How it was run: as §1

alisertib = compound: COc1cc(Nc2ncc3c(n2)-c2ccc(Cl)cc2C(c2c(F)cccc2OC)=NC3)ccc1C(=O)O [alisertib]
How it was run: as §1

gefitinib = compound: COc1cc2ncnc(Nc3ccc(F)c(Cl)c3)c2cc1OCCCN1CCOCC1 [gefitinib]
How it was run: as §1

[8] = compound: CCCS(=O)(=O)Nc1ccc(F)c(C(=O)c2c[nH]c3ncc(Cl)cc23)c1F
How it was run: as §1

volasertib = compound: CC[C@@H]1C(=O)N(C)c2cnc(Nc3ccc(C(=O)N[C@H]4CC[C@H](N5CCN(CC6CC6)CC5)CC4)cc3OC)nc2N1C(C)C [volasertib]
How it was run: as §1

[9] = compound: COc1cc2nc(-c3cc(F)ccc3O)nc(N[C@@H]3CNC[C@H]3C(C)(C)O)c2cc1OC
How it was run: as §1

| Target | log2 fold change (vemurafenib) | log2 fold change (barasertib) | log2 fold change [1] | log2 fold change [2] | log2 fold change [3] | log2 fold change [4] | log2 fold change (saracatinib) | log2 fold change (sotrastaurin) | log2 fold change (alvocidib) | log2 fold change (Tubastatin A) | log2 fold change [5] | log2 fold change (defactinib) | log2 fold change [6] | log2 fold change (encorafenib) | log2 fold change [7] | log2 fold change (alisertib) | log2 fold change (gefitinib) | log2 fold change [8] | log2 fold change (volasertib) | log2 fold change [9] |
| --- | --- | --- | --- | --- | --- | --- | --- | --- | --- | --- | --- | --- | --- | --- | --- | --- | --- | --- | --- | --- |
| ADAM17 (UniProt P78536) | inactive: 0.071 | inactive: -0.184 | inactive: -0.151 | inactive: -0.027 | inactive: 0.065 | inactive: 0.001 | inactive: -0.011 | inactive: 0.002 | inactive: -0.066 | inactive: 0.063 | inactive: 0.011 | inactive: 0.005 | inactive: 0.04 | inactive: 0.09 | inactive: 0.109 | inactive: -0.048 | inactive: 0.031 | – | – | – |
| ADD1 isoform 3 (UniProt P35611) | inactive: -0.025 | inactive: -0.001 | inactive: 0.036 | inactive: -0.002 | inactive: -0.013 | inactive: 0.054 | inactive: 0.002 | inactive: 0 | inactive: 0.016 | inactive: 0.007 | inactive: -0.013 | inactive: 0.015 | inactive: 0.031 | inactive: 0.004 | inactive: -0.034 | inactive: 0.03 | inactive: -0.01 | inactive: -0.002 | inactive: 0.007 | inactive: 0.006 |
| AGFG2 (UniProt O95081) | inactive: 0.072 | – | inactive: -0.001 | inactive: 0.007 | – | – | inactive: 0.126 | inactive: 0.043 | – | inactive: -0.108 | inactive: -0.062 | inactive: 0.119 | inactive: -0.029 | inactive: -0.024 | inactive: 0 | – | – | inactive: -0.199 | inactive: -0.201 | inactive: 0.127 |
| ADAD1 (UniProt Q96M93) | inactive: -0.06 | – | inactive: -0.066 | inactive: -0.067 | – | – | inactive: -0.026 | – | – | inactive: 0.072 | – | inactive: -0.06 | inactive: -0.153 | inactive: 0.041 | inactive: -0.077 | – | – | inactive: -0.023 | inactive: 0.013 | inactive: -0.02 |
| AKR1C1 (UniProt Q04828) | inactive: 0.046 | – | inactive: -0.036 | inactive: -0.037 | inactive: 0.076 | inactive: -0.485 | inactive: 0.138 | – | inactive: 0.068 | inactive: 0.134 | inactive: -0.012 | inactive: 0.047 | inactive: -0.242 | inactive: -0.069 | inactive: 0.042 | – | – | inactive: -0.011 | inactive: 0.091 | inactive: 0.024 |
| ACTB (UniProt C9JTX5) | inactive: -0.403 | inactive: 0.355 | – | – | inactive: 0.778 | inactive: -0.157 | inactive: 0.063 | inactive: -0.017 | inactive: 0.097 | – | – | inactive: 0.085 | inactive: 0.076 | – | – | inactive: -0.143 | inactive: -0.134 | inactive: -0.002 | inactive: -0.047 | inactive: 0.081 |
| ACTB, A0A2R8YGF8 | inactive: 0.962 | inactive: 2.23 | – | – | inactive: 2.24 | inactive: 0.36 | – | – | inactive: -0.107 | – | – | inactive: -0.304 | – | – | – | – | – | – | – | – |
| ACTN4 (UniProt K7EJH8) | – | inactive: 0.041 | inactive: 0.091 | inactive: -0.063 | inactive: -0.038 | inactive: 0.091 | inactive: 0.06 | inactive: 0.029 | inactive: -0.002 | inactive: 0.07 | – | – | inactive: -0.046 | inactive: 0.072 | inactive: -0.009 | inactive: -0.005 | inactive: 0.017 | inactive: 0.043 | inactive: 0.015 | inactive: 0.037 |
| ADCK1 (UniProt Q86TW2) | inactive: -0.11 | – | inactive: 0.085 | – | inactive: -0.141 | inactive: -0.066 | – | – | inactive: 0.053 | – | – | inactive: -0.089 | – | inactive: -0.432 | inactive: 0.041 | – | – | – | – | – |
| AGGF1 (UniProt Q8N302) | inactive: 0.112 | inactive: 0.115 | inactive: 0.084 | inactive: 0.001 | active: -0.43 | inactive: 0.175 | – | inactive: 0.025 | inactive: -0.114 | inactive: -0.058 | inactive: 0.023 | active: -0.365 | – | inactive: 0.126 | inactive: 0.008 | inactive: -0.015 | inactive: -0.008 | inactive: -0.043 | inactive: -0.06 | inactive: 0.145 |
| ADD1 isoform 4 (UniProt P35611) | inactive: 0.061 | inactive: -0.089 | inactive: 0.164 | inactive: -0.345 | inactive: -0.61 | inactive: 0.397 | inactive: 0.083 | – | inactive: -0.397 | inactive: 0.303 | inactive: -0.081 | inactive: 0.071 | inactive: 0.051 | inactive: -0.034 | inactive: 0 | – | – | inactive: -0.003 | inactive: 0.061 | inactive: 0.094 |
| AFDN (UniProt A8MQ02) | inactive: 0.034 | – | – | – | – | – | – | – | – | – | – | inactive: -0.054 | – | – | – | – | – | inactive: 0.122 | inactive: -0.039 | inactive: 0.095 |
| AIF1L (UniProt Q9BQI0) | – | inactive: 0.009 | inactive: -0.101 | inactive: 0.091 | inactive: 0.153 | inactive: -0.117 | inactive: 0.13 | inactive: 0.115 | inactive: 0.083 | inactive: -0.009 | inactive: 0.073 | – | inactive: 0.164 | inactive: 0.06 | active: -0.401 | inactive: 0.095 | inactive: 0.035 | inactive: 0.049 | inactive: -0.086 | inactive: 0.001 |
| AK5 (UniProt Q9Y6K8) | inactive: -0.019 | inactive: -0.015 | inactive: 0.035 | inactive: 0.017 | – | – | inactive: 0.047 | inactive: -0.035 | – | inactive: -0.018 | inactive: 0.067 | inactive: -0.014 | inactive: 0.079 | inactive: -0.002 | inactive: -0.055 | inactive: 0.024 | inactive: 0.019 | inactive: 0.057 | inactive: -0.041 | inactive: -0.025 |
| AFMID isoform 2 (UniProt Q63HM1) | inactive: -0.051 | – | inactive: -0.068 | inactive: -0.205 | inactive: -0.021 | inactive: 0.012 | – | inactive: 0.031 | inactive: 0.072 | inactive: 0.359 | – | inactive: -0.045 | – | inactive: 0.024 | inactive: 0.108 | – | – | – | – | – |
| ACSL5 isoform 3 (UniProt Q9ULC5) | – | inactive: 0.115 | – | inactive: 0.004 | inactive: 0.058 | inactive: -0.318 | inactive: 0.007 | inactive: -0.018 | inactive: 0.127 | inactive: -0.153 | inactive: -0.104 | – | inactive: 0.078 | – | – | inactive: 0.045 | inactive: -0.013 | inactive: 0.038 | inactive: -0.045 | inactive: -0.033 |
| ACTR8 (UniProt Q9H981) | – | – | inactive: -0.106 | inactive: 0.038 | – | – | inactive: -0.022 | – | – | inactive: -0.346 | inactive: 0.087 | – | inactive: 0.007 | inactive: -0.238 | inactive: 0.239 | inactive: 0.066 | inactive: 0.295 | inactive: 0.046 | inactive: -0.017 | inactive: -0.002 |

Some of the entries so far, tab-delimited:
Target	log2 fold change (vemurafenib)	log2 fold change (barasertib)	log2 fold change [1]	log2 fold change [2]	log2 fold change [3]	log2 fold change [4]	log2 fold change (saracatinib)	log2 fold change (sotrastaurin)	log2 fold change (alvocidib)	log2 fold change (Tubastatin A)	log2 fold change [5]	log2 fold change (defactinib)	log2 fold change [6]	log2 fold change (encorafenib)	log2 fold change [7]	log2 fold change (alisertib)	log2 fold change (gefitinib)	log2 fold change [8]	log2 fold change (volasertib)	log2 fold change [9]
ADAM17 (UniProt P78536)	inactive: 0.071	inactive: -0.184	inactive: -0.151	inactive: -0.027	inactive: 0.065	inactive: 0.001	inactive: -0.011	inactive: 0.002	inactive: -0.066	inactive: 0.063	inactive: 0.011	inactive: 0.005	inactive: 0.04	inactive: 0.09	inactive: 0.109	inactive: -0.048	inactive: 0.031	–	–	–
ADD1 isoform 3 (UniProt P35611)	inactive: -0.025	inactive: -0.001	inactive: 0.036	inactive: -0.002	inactive: -0.013	inactive: 0.054	inactive: 0.002	inactive: 0	inactive: 0.016	inactive: 0.007	inactive: -0.013	inactive: 0.015	inactive: 0.031	inactive: 0.004	inactive: -0.034	inactive: 0.03	inactive: -0.01	inactive: -0.002	inactive: 0.007	inactive: 0.006
AGFG2 (UniProt O95081)	inactive: 0.072	–	inactive: -0.001	inactive: 0.007	–	–	inactive: 0.126	inactive: 0.043	–	inactive: -0.108	inactive: -0.062	inactive: 0.119	inactive: -0.029	inactive: -0.024	inactive: 0	–	–	inactive: -0.199	inactive: -0.201	inactive: 0.127

Reference: the supplement of paper PMC10849652
